PubChem BioAssay AID1671195, Yale University, 2021
Screen: 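Knockdowns that increase or decrease uptake of fluorescent LDL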 (primary screen). Cells: human Huh7 hepatoma cells. Reagent: siRNA pool against human genes, 18 nM. Duration: about 2 to 2.5 days of knockdown, then 8 h LDL uptake. Treatment: DiI-labelled LDL at 30 µg/ml for 8 h, in lipoprotein-deficient serum medium. Read-out: 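Fluorescent LDL signal imaged in cells, scaled to the plate median, robust z-score for each replicate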. Scale: robust z-score: higher = more LDL uptake after knockdown. Hit rule: 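Active when two or more replicates show a robust z-score above 2 or below -2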.
This is an unselected part of about 22,000 reagents tested. In the full data, about 1,510 (6.9%) were called active. 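Active includes knockdowns raising or lowering LDL uptake; positive z-scores mean more uptake, negative mean less.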 Reagent sequences are not shown.

Target gene	robust z-score, replicate 1	robust z-score, replicate 2	robust z-score, replicate 3	Call
OR2W3 (olfactory receptor family 2 subfamily W member 3)	-1.22	-1.06	-0.92	inactive
C1orf216 (chromosome 1 open reading frame 216)	-0.625	-0.68	0.0509	inactive
DDX50 (DExD-box helicase 50)	-0.82	0.43	0.478	inactive
RUNDC3A (RUN domain containing 3A)	-1.32	-0.372	-1.4	inactive
TRIM36 (tripartite motif containing 36)	-1.29	-0.365	-0.259	inactive
CDK12 (cyclin dependent kinase 12)	-1.24	-1.2	-1.13	inactive
LOC441500 (retired record)	0.00721	-0.707	-0.608	inactive
LOC727862	-1.07	-1.15	-1.14	inactive
DIRAS3 (DIRAS family GTPase 3)	-0.346	-0.143	-0.0718	inactive
LOC441458 (retired record)	-1.16	-1.51	-1.13	inactive
SPIN3 (spindlin family member 3)	-1.07	-0.934	-0.896	inactive
GTPBP4 (GTP binding protein 4)	-0.92	0.893	-0.5	inactive
MYOG (myogenin)	-1.06	-0.98	-0.519	inactive
ELAC1 (elaC ribonuclease Z 1)	-0.194	-0.294	0.204	inactive
CDH19 (cadherin 19)	-0.615	-0.245	-0.196	inactive
ZFP1 (ZFP1 zinc finger protein)	0.247	0.544	0.0637	inactive
RS1 (retinoschisin 1)	0.992	-0.167	-0.353	inactive
TBCC (tubulin folding cofactor C)	1.38	1.27	2.43	inactive
LOC402414 (retired record)	-0.658	-0.447	-0.595	inactive
LOC339685	0.815	0.665	0.482	inactive
HCK (HCK proto-oncogene, Src family tyrosine kinase)	0.47	0.204	0.0462	inactive
STEAP3 (STEAP3 metalloreductase)	-0.703	1.75	-0.013	inactive
PSMB2 (proteasome 20S subunit beta 2)	1.24	0.427	1.27	inactive
MYO3B (myosin IIIB)	-0.844	-1.1	-0.834	inactive
IRX2 (iroquois homeobox 2)	-0.0826	0.125	0.102	inactive
C9orf152 (chromosome 9 open reading frame 152)	0.171	0.461	0.756	inactive
MUC21 (mucin 21, cell surface associated)	1.44	1.29	1.25	inactive
PHF3 (PHD finger protein 3)	1.84	0.303	1.94	inactive
LGALS16 (galectin 16)	0.0763	0.944	0.538	inactive
SYT17 (synaptotagmin 17)	0.944	1.02	-1.56	inactive
TRIM45 (tripartite motif containing 45)	-0.197	-1.36	-0.305	inactive
TXNDC9P1 (TXNDC9 pseudogene 1)	1.36	1.48	1.55	inactive
LOC145846 (retired record)	0.521	1.46	0.184	inactive
ZNF182 (zinc finger protein 182)	-0.345	0.141	-0.232	inactive
ZDHHC16 (zDHHC palmitoyltransferase 16)	0.715	1.51	0.625	inactive
CLEC16A (C-type lectin domain containing 16A)	-0.578	0.175	-0.274	inactive
CYP2C9 (cytochrome P450 family 2 subfamily C member 9)	0.609	0.366	0.14	inactive
SYCP1 (synaptonemal complex protein 1)	-0.678	-0.492	-0.86	inactive
NLGN4Y (neuroligin 4 Y-linked)	0.511	0.981	0.306	inactive
TMOD4 (tropomodulin 4)	-1.72	-2.64	-1.89	inactive
LOC440002 (retired record)	0.337	0.149	0.556	inactive
UNC119 (unc-119 lipid binding chaperone)	-0.117	-0.176	0.0918	inactive
LOC389442 (retired record)	0.122	-0.123	-0.186	inactive
LOC440526 (retired record)	-0.366	-0.956	-0.695	inactive
BOK (BCL2 family apoptosis regulator BOK)	0.988	0.907	0.0689	inactive
LOC388361 (retired record)	-0.466	-0.595	-0.14	inactive
PIN1 (peptidylprolyl cis/trans isomerase, NIMA-interacting 1)	0.532	-0.633	0.33	inactive
ACOT4 (acyl-CoA thioesterase 4)	-1.28	-1.55	-0.856	inactive
CCL11 (C-C motif chemokine ligand 11)	-0.901	-0.433	-0.307	inactive
SPAG9 (sperm associated antigen 9)	-0.916	-0.779	-0.602	inactive
SLC25A29	-0.88	-1.36	-0.783	inactive
SLC6A8	-0.184	-0.217	0.109	inactive
ELMO3 (engulfment and cell motility 3)	-1.26	-1.18	-1.08	inactive
UBE2Q2P1 (UBE2Q2 pseudogene 1)	1.12	1.27	1.15	inactive
CAVIN1 (caveolae associated protein 1)	-0.59	-0.5	-0.12	inactive
EXOSC4 (exosome component 4)	-1.03	-1.24	-1.51	inactive
GPATCH3 (G-patch domain containing 3)	0.481	0.336	-0.0762	inactive
NUP153 (nucleoporin 153)	1.71	2.05	1.29	inactive
PAM (peptidylglycine alpha-amidating monooxygenase)	-0.174	-0.335	0.673	inactive
LOC440141 (retired record)	-1.55	-1.44	-1.84	inactive
NEDD9	-0.249	-0.211	0.641	inactive
TEX55 (testis expressed 55)	0.782	0.491	1.16	inactive
RBBP9 (RB binding protein 9, serine hydrolase)	1.3	0.599	2.55	inactive
DENND5B (DENN domain containing 5B)	-0.462	-0.221	-1.13	inactive
NBR2 (neighbor of BRCA1 lncRNA 2)	-0.325	-1.68	-0.912	inactive
KCNIP3 (potassium voltage-gated channel interacting protein 3)	0.0232	-0.168	-0.0337	inactive
SERPINA12 (serpin family A member 12)	-0.0935	-0.776	-0.0484	inactive
RNASE13 (ribonuclease A family member 13 (inactive))	1.15	1.44	1.81	inactive

An excerpt from above, limited to “robust z-score, replicate 3”.
DDX50 (DExD-box helicase 50): 0.478
RUNDC3A (RUN domain containing 3A): -1.4
TRIM36 (tripartite motif containing 36): -0.259
CDK12 (cyclin dependent kinase 12): -1.13
LOC441500 (retired record): -0.608
LOC727862: -1.14
DIRAS3 (DIRAS family GTPase 3): -0.0718
LOC441458 (retired record): -1.13
SPIN3 (spindlin family member 3): -0.896
